## Library screen at single concentrations

Amino acid sequences for entries named in this document (tags omitted). Residues count along the entry.
UniProt Q4DA54, 1-478: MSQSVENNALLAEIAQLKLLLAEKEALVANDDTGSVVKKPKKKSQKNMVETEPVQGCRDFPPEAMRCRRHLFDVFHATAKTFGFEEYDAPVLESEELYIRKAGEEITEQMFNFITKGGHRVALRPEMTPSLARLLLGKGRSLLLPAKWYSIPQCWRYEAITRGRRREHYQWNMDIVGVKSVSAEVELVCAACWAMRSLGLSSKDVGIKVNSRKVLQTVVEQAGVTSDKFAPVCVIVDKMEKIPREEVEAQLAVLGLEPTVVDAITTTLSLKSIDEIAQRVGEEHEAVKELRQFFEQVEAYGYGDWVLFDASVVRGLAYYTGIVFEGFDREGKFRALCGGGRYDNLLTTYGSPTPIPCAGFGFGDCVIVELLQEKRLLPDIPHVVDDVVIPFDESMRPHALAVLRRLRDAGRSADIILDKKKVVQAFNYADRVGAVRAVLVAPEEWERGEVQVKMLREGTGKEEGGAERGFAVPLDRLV

Source: ChEMBL document CHEMBL3988442, “University of Dundee, Small-Polar-MMV Screening Library” (2021).

Toxoplasma: 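Assay of Toxoplasma gondii numbers, read through their beta-galactosidase reporter with a colour substrate. Tested at 10 µM. The record gives no direction; the compounds picked for IC50 retests had high values, so higher reads as fewer parasites. Of about 67,000 compounds tested this way, about 260 (0.38%) reached 50% or more in at least one test.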
TcHisRS: 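Histidine-tRNA ligase, Trypanosoma cruzi CL Brener (UniProt Q4DA54). Enzyme assay of histidyl-tRNA synthetase; the read-out is not stated. Compounds at 30 µM. Higher reads as stronger inhibition (inferred: compounds with an IC50 in retests scored well above the rest). Size under these conditions: about 69,000 compounds, about 31 of them at 50% or above in at least one test.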

Results are given as percent effect.
The controls that fix the scale are not given in the record; negative values are as filed.
This is an unselected part of the compounds tested.

{"smiles": "Cc1nccn1-c1cccc(C2CCCN(C3CCCCC3)C2)n1", "stereo": "stereo not shown", "Toxoplasma": 1.858, "TcHisRS": 1.622}
{"smiles": "C[S+]([O-])CCCNC(=O)c1cc(Br)c2c(c1)OCCO2", "stereo": "stereo not shown", "Toxoplasma": -2.863, "TcHisRS": -1.245}
{"smiles": "O=C(O)C(F)(F)F.[H][C@]12C[C@H](CN(C)C)O[C@@]1([H])CN(C(=O)c1ccno1)C2", "Toxoplasma": -2.074}
{"smiles": "[H][C@]12CC[C@@]3(N=C(C)N(CC(C)C)C3=O)[C@@]1([H])CN(S(C)(=O)=O)C2", "Toxoplasma": 3.14}
{"smiles": "O=C(O)C(F)(F)F.O=C(O)C(F)(F)F.[H][C@@]12CCCO[C@]1([H])[C@@H](OCc1csc(C)n1)CN2Cc1ccccn1", "Toxoplasma": 12.48}
{"smiles": "COCc1noc(Cn2c(C3CC3)nc3ccccc32)n1", "TcHisRS": 4.95}
{"smiles": "CSCC(C)CNC(=O)N1CCSC(C)(C)C1", "stereo": "stereo not shown", "Toxoplasma": 3.721, "TcHisRS": 2.521}
{"smiles": "CCNC(=O)N[C@H]1C[C@@H](Cc2cc(CN3CCCCC3)on2)C1(C)C", "Toxoplasma": 8.005, "TcHisRS": 4.478}
{"smiles": "CCNC(=O)CCc1c(C)nc2cc(O)nn2c1C", "Toxoplasma": -3.282, "TcHisRS": 2.29}
{"smiles": "Cn1cc(-c2cc(C(F)F)n3nc(CCC(=O)O)nc3n2)cn1", "Toxoplasma": 7.882, "TcHisRS": 5.78}
{"smiles": "CC(C)n1[nH]c(=O)c2c1NC(=O)CC2c1ccc(S(C)(=O)=O)cc1", "stereo": "stereo not shown", "Toxoplasma": -15.29, "TcHisRS": 0}
{"smiles": "CCCNc1ccc(C(=O)NCCc2ccc(Cl)cc2)cn1", "Toxoplasma": 9.546, "TcHisRS": 3.409}
{"smiles": "CC(C)(CN1CCC(Cc2ccc(C(=O)O)cc2)C1)N1CCOCC1", "stereo": "stereo not shown", "Toxoplasma": 8.88, "TcHisRS": 0.4292}
{"smiles": "CC1CCN(C(=O)Cn2cc(I)cn2)CC1", "Toxoplasma": 3.304, "TcHisRS": 0}
{"smiles": "c1ccc(CCN2CCC(OCC3CCCCO3)CC2)nc1", "stereo": "stereo not shown", "Toxoplasma": -39.81, "TcHisRS": 0}
{"smiles": "COc1ccc(F)cc1-n1cnc(CCNC(C)=O)c1", "TcHisRS": -2.299}
{"smiles": "CC(=O)OC1CN(c2nc3c(C(F)(F)F)cccc3s2)C1", "Toxoplasma": 13.91, "TcHisRS": 10.1}
{"smiles": "O=C(c1ccc(O)nc1)N1Cc2ccccc2OC2(CCOCC2)C1", "Toxoplasma": 2.369, "TcHisRS": 5.97}
{"smiles": "COc1c(F)cc(NC(=O)N2CCC(CSC)C2)cc1F", "stereo": "stereo not shown", "Toxoplasma": -0.3398, "TcHisRS": -3.704}
{"smiles": "C=Cn1cc(CN2CCc3nc(-c4cccnc4)nc(O)c3C2)c(C)n1", "Toxoplasma": 4.305, "TcHisRS": 0}
{"smiles": "O=C(Nc1ccccc1Oc1cccc(F)c1)NC1CCS(=O)(=O)C1", "stereo": "stereo not shown", "Toxoplasma": 13.97, "TcHisRS": 2.618}
{"smiles": "Cc1ccc(C(=O)NCCN2CCOCC2)c(=O)[nH]1", "Toxoplasma": 3.846, "TcHisRS": 1.63}
{"smiles": "OCCOc1ccc(NCc2cccc3cn[nH]c23)cn1", "Toxoplasma": -0.2163, "TcHisRS": 1.299}
{"smiles": "CC(C)NC(=O)CSc1nc2c(cnn2CCO)c(=O)[nH]1", "Toxoplasma": 14.37, "TcHisRS": 14.57}
{"smiles": "Cc1ccccc1C(=O)NC[C@@H]1CCN(C(=O)CN2CCCC2)C[C@H]1O", "Toxoplasma": -29.48, "TcHisRS": 6.667}
{"smiles": "CCN1CCC[C@@H]1CNC(=O)c1cc(COc2ccccc2)[nH]n1", "Toxoplasma": 10.1, "TcHisRS": 4.721}
{"smiles": "Fc1cccc(CN2CCC3(CCCN3c3ncccn3)CC2)c1", "TcHisRS": 6.667}
{"smiles": "Cc1cc(-c2ccccc2)nc(C2CCCN2S(C)(=O)=O)n1", "stereo": "stereo not shown", "TcHisRS": 4.615}
{"smiles": "O=C(c1cocn1)N1C[C@@H]2CN(CC3CC3)CCO[C@@H]2C1", "TcHisRS": 1.961}
{"smiles": "COc1ccc(C(O)CNC(=O)NCc2nc(C)cs2)cc1", "stereo": "stereo not shown", "Toxoplasma": -2.84, "TcHisRS": 7.602}
{"smiles": "O=C(O)C(F)(F)F.[H][C@@]12CN(Cc3ccc(OC)cc3)C[C@]1([H])C(=O)N(c1ccsc1)C2", "Toxoplasma": -3.281}
{"smiles": "Cc1nc(NS(=O)(=O)c2cc(C)c(Br)cc2C)no1", "Toxoplasma": 1.638, "TcHisRS": 5.357}
{"smiles": "[H][C@@]12CCCO[C@]1([H])[C@@H](OC)CN2Cc1ccccc1F", "Toxoplasma": 2.351}
{"smiles": "COc1ccc(F)cc1CN1CCCn2nc(CNS(C)(=O)=O)cc2C1", "Toxoplasma": -11.77, "TcHisRS": 2.041}
{"smiles": "CSc1cccc(CN(C)C(=O)c2cccc(C3CCCNC3)c2)c1", "stereo": "stereo not shown", "Toxoplasma": -29.33, "TcHisRS": 15.2}
{"smiles": "CCOCCCC(=O)Nc1[nH]nc(-c2ccncc2)c1C", "Toxoplasma": -3.599, "TcHisRS": 1.01}
{"smiles": "Cn1ccnc1CN1CCC2(CC1)CN(c1ccccc1)C(=O)CO2.O=C(O)C(F)(F)F", "Toxoplasma": -33.97}

For reference, 2 entries once more:

| SMILES | Toxoplasma | TcHisRS |
|---|---|---|
| `O=C(c1ccc(O)nc1)N1Cc2ccccc2OC2(CCOCC2)C1` | 2.369 | 5.97 |
| `COc1ccc(C(O)CNC(=O)NCc2nc(C)cs2)cc1` (stereo not shown) | -2.84 | 7.602 |